Assay results reported in patent publication US20210269519A1.
These are yes or no findings as the source states them, for the method shown. Binding seen in cells or lysates may run through a third protein. Some binding calls cover weakened binding; strength is not graded here. For some assays here: Sequences can lack the tags named with a protein.

Protein sequences, listed by entry. Tags and fused reporters are not part of them. Lines headed by an entry give the natural chain unless they say otherwise; changes in a name come on top. Residues count along the entry.
UniProt P35222: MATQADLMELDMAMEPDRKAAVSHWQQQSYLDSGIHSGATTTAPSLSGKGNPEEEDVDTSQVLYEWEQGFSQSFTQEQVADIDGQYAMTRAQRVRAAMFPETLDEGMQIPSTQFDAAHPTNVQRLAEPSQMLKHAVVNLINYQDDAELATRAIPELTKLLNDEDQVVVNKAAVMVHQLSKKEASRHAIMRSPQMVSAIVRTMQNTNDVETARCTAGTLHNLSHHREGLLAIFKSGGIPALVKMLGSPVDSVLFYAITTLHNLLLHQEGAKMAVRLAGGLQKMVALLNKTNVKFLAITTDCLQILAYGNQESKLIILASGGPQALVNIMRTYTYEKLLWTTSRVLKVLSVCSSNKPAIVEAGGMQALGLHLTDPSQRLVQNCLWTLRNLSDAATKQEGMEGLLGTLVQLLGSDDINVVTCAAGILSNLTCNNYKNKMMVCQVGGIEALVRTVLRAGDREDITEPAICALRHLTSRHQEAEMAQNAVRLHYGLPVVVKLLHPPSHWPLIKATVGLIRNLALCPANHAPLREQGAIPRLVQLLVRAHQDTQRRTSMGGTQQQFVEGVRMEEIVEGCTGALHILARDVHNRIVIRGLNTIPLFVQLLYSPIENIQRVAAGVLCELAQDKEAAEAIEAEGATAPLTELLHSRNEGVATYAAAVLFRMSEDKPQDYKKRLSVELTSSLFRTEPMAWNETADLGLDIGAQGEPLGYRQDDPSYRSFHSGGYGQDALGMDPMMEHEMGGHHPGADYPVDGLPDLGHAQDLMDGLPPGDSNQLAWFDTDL
UniProt P49841: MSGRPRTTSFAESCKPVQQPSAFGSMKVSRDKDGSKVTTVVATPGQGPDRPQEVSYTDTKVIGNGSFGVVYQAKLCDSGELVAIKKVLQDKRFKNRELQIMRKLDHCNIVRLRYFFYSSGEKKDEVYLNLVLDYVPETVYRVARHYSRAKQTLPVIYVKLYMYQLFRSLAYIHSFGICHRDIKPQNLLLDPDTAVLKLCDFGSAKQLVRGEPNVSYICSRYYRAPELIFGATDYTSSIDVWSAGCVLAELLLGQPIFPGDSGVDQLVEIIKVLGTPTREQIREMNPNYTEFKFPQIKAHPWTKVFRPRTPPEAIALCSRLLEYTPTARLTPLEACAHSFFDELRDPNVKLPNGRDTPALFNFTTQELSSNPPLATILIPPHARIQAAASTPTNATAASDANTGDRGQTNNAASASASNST
UniProt Q9UKV5: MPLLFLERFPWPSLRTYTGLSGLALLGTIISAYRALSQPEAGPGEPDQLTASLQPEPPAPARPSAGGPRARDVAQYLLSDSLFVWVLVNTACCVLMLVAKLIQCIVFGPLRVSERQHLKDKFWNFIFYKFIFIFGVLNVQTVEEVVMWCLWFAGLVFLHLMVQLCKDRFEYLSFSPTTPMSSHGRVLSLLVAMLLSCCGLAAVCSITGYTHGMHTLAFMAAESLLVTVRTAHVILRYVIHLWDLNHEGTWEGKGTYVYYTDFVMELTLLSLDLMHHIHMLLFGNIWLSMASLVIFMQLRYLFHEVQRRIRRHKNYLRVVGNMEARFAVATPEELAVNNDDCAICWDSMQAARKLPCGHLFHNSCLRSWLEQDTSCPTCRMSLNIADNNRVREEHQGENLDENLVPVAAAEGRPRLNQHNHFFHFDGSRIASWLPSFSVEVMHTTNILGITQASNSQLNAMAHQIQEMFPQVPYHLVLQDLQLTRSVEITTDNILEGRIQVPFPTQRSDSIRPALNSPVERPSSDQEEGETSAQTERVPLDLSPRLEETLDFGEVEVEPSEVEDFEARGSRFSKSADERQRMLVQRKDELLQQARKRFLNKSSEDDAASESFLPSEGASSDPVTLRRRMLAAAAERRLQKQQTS
UniProt Q9ULT6, residues 56-936: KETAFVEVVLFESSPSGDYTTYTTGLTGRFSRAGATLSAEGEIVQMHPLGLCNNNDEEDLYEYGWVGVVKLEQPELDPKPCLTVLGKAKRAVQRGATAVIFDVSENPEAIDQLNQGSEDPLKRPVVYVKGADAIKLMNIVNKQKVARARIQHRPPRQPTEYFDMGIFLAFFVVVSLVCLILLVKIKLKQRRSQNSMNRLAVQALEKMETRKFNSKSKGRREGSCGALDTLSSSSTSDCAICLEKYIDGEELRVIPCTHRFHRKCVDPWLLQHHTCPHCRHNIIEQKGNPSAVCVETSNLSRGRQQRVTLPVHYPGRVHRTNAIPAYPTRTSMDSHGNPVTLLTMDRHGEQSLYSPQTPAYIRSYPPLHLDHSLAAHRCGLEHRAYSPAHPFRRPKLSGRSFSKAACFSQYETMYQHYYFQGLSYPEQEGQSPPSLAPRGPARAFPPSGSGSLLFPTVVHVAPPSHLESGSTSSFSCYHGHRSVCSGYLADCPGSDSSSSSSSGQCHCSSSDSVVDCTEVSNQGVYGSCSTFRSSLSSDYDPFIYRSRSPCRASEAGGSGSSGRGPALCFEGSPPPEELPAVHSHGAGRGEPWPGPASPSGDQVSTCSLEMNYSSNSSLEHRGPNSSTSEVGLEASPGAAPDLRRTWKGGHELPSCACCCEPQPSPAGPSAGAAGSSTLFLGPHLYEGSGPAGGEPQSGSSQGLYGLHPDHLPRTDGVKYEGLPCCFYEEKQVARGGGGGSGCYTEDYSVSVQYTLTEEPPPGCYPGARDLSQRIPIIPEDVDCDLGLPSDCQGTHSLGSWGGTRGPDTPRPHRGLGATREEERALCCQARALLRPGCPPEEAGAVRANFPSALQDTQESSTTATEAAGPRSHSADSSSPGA

Assays:
[1] = target: T1, Flag tagged-human Lmbr1l (limb region 1 like, LMBR1L) (human) (UniProt Q6UX01); assay: anti-FLAG co-IP from HEK293T lysate + LC-MS/MS
T1 sequence: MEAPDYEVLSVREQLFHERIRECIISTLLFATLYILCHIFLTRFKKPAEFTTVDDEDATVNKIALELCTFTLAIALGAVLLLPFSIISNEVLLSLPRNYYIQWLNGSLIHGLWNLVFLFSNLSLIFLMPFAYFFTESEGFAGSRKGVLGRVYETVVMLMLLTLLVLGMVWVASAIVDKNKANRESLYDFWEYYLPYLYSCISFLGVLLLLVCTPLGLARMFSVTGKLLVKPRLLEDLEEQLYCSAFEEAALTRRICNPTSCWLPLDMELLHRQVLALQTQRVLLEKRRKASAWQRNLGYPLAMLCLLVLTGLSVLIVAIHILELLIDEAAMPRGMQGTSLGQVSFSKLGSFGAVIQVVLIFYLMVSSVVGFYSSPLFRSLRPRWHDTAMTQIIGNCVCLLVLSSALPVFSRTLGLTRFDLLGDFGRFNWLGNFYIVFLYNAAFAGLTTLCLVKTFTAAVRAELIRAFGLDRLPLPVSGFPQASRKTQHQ

[2] = target: T1, Flag tagged-human Lmbr1l (limb region 1 like, LMBR1L) (human); assay: anti-FLAG co-IP from HEK293T lysate + LC-MS/MS, vs empty vector
[3] = target: FLAG-tagged β-catenin (Homo sapiens (Human)) (UniProt P35222); assay: co-IP (anti-FLAG M2 agarose) from co-transfected HEK293T cells, anti-HA immunoblot (FIG. 26A)

| Substance | binding [1] | binding [2] | binding [3] |
| --- | --- | --- | --- |
| GSK3β (GSK3B) (from UniProt P49841 1-420) (enzyme) | binds | binds |  |
| HA-tagged GP78 (from UniProt Q9UKV5 1-643) (enzyme) |  |  | binds |
| zinc and ring finger 3 (ZNRF3) (from UniProt Q9ULT6 56-936) (enzyme) | binds | binds |  |
